Assay results taken from the supplement of paper PMC10849652.
The other results are listed elsewhere or left out.

Protein sequences, listed by entry. Tags and fused reporters are not part of them. Lines headed by an entry give the natural chain unless they say otherwise; changes in a name come on top.
UniProt Q8N3D4: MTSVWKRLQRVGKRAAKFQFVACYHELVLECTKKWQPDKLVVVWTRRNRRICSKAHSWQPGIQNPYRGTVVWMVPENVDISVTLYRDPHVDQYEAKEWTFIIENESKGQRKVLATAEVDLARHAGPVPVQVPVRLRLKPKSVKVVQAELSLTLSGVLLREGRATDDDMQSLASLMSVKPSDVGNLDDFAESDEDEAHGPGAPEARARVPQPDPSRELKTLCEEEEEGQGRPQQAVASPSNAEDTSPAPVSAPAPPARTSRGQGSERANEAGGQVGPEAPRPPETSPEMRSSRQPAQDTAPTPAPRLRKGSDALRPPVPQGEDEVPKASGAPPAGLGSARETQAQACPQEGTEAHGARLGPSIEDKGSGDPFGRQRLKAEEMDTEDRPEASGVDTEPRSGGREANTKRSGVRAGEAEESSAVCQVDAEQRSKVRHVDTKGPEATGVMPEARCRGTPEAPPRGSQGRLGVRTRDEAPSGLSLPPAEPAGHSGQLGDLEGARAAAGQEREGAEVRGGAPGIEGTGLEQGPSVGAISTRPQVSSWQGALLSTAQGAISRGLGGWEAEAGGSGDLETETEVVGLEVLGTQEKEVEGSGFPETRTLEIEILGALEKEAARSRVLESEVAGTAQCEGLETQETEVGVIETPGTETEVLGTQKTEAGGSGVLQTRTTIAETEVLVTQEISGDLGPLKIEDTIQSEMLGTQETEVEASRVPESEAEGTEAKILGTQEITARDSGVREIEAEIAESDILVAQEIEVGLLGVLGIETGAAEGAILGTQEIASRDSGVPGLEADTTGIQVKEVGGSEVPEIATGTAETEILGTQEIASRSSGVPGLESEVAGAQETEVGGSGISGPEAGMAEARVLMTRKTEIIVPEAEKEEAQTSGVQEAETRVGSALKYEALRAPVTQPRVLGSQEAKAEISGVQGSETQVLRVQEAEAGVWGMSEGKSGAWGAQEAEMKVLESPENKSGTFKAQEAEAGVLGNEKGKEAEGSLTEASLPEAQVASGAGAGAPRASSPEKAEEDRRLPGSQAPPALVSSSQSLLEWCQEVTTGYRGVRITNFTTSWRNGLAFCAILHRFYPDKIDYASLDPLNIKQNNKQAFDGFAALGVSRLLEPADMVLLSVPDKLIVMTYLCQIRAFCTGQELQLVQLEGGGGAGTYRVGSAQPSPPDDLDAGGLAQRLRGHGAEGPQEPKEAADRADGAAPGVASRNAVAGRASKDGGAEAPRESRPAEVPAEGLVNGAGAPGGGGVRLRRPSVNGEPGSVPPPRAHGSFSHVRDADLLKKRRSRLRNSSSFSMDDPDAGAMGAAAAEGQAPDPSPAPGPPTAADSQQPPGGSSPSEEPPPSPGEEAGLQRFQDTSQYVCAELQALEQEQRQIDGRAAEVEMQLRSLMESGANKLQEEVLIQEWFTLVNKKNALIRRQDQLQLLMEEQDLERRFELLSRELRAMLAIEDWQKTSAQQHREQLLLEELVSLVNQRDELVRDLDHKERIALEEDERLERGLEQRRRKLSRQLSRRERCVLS
UniProt Q9H223: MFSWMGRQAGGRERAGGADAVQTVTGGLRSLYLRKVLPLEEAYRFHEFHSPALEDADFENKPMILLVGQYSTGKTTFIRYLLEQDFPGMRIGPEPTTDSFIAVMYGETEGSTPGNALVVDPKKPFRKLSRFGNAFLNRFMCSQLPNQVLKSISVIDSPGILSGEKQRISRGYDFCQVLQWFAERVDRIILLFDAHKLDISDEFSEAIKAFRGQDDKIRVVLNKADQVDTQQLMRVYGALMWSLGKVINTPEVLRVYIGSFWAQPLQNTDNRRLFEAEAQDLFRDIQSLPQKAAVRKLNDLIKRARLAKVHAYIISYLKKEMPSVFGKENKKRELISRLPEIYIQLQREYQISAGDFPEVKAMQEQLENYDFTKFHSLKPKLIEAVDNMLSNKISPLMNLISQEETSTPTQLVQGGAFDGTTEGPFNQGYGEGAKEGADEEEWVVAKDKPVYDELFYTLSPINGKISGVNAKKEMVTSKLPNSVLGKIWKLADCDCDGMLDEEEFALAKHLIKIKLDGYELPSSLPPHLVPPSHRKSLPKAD
UniProt Q9BVC3, whole entry, looked up: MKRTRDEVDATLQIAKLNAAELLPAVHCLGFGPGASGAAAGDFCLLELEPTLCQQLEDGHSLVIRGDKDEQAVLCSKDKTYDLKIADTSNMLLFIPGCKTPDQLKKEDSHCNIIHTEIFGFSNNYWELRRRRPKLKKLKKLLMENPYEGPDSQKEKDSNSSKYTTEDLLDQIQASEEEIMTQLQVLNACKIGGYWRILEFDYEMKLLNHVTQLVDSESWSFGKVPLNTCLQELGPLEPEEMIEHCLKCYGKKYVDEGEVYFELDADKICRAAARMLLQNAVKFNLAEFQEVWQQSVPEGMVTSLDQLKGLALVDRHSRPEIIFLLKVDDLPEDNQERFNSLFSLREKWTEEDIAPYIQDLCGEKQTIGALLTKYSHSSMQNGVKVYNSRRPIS
UniProt Q15029: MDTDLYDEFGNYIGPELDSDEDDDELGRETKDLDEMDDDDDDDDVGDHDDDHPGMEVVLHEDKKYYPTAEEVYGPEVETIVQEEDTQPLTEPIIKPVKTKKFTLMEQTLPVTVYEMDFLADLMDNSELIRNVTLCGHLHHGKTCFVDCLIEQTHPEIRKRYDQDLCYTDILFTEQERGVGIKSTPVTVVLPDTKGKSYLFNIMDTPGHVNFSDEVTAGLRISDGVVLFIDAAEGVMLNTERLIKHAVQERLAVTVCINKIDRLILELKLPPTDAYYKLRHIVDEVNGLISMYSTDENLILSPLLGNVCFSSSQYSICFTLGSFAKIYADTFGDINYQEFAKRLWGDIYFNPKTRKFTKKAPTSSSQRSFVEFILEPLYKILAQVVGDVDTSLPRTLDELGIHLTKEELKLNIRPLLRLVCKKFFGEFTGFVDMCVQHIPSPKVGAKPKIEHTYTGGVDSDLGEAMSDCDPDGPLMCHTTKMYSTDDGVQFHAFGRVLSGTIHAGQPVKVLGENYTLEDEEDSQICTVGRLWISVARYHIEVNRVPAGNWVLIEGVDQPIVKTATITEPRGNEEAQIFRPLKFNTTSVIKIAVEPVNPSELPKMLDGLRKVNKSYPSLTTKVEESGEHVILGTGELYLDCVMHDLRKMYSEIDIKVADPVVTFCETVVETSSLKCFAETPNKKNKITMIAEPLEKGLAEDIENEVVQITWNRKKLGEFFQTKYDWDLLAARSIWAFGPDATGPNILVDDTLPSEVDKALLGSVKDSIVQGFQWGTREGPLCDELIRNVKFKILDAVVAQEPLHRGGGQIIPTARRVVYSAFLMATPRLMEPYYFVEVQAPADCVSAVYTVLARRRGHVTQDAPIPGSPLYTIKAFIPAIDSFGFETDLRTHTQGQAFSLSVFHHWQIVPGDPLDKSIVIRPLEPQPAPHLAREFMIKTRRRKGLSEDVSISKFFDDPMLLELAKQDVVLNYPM
UniProt P24534: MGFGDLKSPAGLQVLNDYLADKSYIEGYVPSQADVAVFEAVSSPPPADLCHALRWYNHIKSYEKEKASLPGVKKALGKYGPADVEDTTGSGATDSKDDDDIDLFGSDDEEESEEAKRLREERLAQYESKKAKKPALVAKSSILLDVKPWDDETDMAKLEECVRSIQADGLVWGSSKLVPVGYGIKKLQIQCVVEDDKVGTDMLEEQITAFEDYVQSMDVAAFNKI
UniProt Q96DC8: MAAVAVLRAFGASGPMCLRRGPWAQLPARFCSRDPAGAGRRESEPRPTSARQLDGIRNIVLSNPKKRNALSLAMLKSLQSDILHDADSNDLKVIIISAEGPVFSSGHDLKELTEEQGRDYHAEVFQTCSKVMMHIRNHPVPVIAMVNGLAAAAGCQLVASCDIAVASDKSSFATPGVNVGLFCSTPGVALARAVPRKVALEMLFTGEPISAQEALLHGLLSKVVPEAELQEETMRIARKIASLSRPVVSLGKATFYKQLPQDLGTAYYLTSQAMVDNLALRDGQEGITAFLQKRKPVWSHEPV
UniProt O60762: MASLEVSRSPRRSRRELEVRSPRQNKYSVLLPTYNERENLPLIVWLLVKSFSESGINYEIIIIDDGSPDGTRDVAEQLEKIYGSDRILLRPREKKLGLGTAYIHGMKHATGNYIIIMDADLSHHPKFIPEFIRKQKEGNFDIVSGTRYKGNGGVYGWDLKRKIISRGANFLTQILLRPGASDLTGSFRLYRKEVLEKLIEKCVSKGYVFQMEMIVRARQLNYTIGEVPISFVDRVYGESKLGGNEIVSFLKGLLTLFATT
UniProt Q9BZQ6: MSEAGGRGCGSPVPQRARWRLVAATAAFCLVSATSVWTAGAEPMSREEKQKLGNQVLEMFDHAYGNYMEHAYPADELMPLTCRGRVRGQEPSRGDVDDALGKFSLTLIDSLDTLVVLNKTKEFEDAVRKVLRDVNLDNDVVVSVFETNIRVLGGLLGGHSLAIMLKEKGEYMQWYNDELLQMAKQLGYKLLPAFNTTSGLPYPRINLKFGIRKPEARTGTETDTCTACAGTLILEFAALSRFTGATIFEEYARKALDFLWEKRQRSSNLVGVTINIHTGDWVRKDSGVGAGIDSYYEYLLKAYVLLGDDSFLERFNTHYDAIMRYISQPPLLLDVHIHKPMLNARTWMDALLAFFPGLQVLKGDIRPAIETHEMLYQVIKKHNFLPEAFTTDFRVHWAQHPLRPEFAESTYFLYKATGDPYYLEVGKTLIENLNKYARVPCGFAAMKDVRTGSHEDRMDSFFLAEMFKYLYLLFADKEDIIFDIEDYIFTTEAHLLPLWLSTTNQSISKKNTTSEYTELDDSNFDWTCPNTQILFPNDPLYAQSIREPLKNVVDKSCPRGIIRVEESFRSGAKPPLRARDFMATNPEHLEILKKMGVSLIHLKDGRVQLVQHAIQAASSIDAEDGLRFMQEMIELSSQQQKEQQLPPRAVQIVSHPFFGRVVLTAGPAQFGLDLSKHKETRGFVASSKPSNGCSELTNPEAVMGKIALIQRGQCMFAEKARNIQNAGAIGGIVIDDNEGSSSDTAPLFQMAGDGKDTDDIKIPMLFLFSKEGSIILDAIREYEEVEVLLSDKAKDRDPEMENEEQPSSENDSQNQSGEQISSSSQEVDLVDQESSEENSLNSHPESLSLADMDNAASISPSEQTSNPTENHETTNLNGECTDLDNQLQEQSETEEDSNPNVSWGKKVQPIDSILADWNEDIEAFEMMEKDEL
UniProt Q8TEA8: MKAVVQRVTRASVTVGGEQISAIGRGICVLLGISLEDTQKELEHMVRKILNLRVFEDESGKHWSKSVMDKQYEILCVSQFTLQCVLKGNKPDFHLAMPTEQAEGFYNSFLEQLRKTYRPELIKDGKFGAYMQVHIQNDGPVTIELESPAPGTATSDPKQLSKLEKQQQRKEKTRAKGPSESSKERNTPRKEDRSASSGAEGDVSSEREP
EEF1AKMT2, A0A494BZY7, UniProt A0A494BZY7, whole entry, looked up: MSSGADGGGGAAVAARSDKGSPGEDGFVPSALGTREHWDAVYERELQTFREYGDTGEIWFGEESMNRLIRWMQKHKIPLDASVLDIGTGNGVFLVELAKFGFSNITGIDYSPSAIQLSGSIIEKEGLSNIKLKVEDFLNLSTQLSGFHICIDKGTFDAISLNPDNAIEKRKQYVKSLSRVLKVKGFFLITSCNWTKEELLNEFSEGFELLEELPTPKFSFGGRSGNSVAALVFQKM
UniProt O00418: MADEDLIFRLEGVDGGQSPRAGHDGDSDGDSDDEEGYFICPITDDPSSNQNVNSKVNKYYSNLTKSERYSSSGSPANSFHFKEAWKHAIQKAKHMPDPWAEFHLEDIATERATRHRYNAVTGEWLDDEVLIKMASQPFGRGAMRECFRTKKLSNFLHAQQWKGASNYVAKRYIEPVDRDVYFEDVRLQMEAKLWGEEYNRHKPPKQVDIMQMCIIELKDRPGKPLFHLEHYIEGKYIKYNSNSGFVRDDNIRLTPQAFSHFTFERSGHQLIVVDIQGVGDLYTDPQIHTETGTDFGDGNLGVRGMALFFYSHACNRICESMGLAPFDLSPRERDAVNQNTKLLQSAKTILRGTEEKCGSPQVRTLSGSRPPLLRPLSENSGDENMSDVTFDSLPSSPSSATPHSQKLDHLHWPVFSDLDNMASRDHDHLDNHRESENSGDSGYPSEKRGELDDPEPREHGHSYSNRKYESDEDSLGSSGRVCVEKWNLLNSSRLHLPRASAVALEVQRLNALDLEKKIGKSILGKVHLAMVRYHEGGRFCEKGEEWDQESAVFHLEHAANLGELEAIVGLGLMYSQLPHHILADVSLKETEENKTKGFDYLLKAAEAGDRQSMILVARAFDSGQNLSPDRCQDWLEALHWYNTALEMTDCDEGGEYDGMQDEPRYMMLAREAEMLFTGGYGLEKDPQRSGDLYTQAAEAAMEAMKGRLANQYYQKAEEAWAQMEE
UniProt Q01658: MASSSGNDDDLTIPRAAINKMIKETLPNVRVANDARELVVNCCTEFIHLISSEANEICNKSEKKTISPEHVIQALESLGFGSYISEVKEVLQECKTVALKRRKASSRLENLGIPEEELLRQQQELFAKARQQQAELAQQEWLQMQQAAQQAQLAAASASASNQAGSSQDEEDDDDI

Legend:
Assay in all cases: log2 fold change, soluble protein after heating vs DMSO (PISA); higher = thermal stabilisation; K562 lysate, 10 uM; active = over 0.2 and 3.5 SD of the protein, either way, in both replicates (recomputed)
vemurafenib = compound: CCCS(=O)(=O)Nc1ccc(F)c(C(=O)c2c[nH]c3ncc(-c4ccc(Cl)cc4)cc23)c1F [vemurafenib]
In short: (§1)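 Soluble protein was defined as the supernatant remaining after 21,000xg for 90 min, following pooling of heated aliquots and adjustment to 0.5% NP-40 at 4°C. Before that, crude K562 extract at 1 mg/mL protein in PBS pH 7.4 with 1 mM MgCl2 was treated with 10 μM compound for 30 min and heated for 3 min across 48°C-58°C. Quantification used TMTpro 16plex LC-MS/MS with channel sums equalised, and values are log-two fold changes in thermal stability relative to solvent controls from duplicates.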

[1] = compound: CCCS(=O)(=O)Nc1ccc(F)c(C(=O)c2c[nH]c3ncc(Cl)cc23)c1F
In short: as §1

barasertib = compound: CCN(CCCOc1ccc2c(Nc3cc(CC(=O)Nc4cccc(F)c4)[nH]n3)ncnc2c1)CCOP(=O)(O)O [barasertib]
In short: as §1

[2] = compound: CC[C@@H]1C(=O)N(C)c2cnc(Nc3ccc(C(=O)NC4CCN(C)CC4)cc3OC)nc2N1C1CCCC1
In short: as §1

volasertib = compound: CC[C@@H]1C(=O)N(C)c2cnc(Nc3ccc(C(=O)N[C@H]4CC[C@H](N5CCN(CC6CC6)CC5)CC4)cc3OC)nc2N1C(C)C [volasertib]
In short: as §1

[3] = compound: CCn1c(C(=O)N(C2CC2)C2CC2)cc2c3c(ncn3C)c(Nc3cc(C)n(C)n3)nc21
In short: as §1

[4] = compound: CCn1cc(-c2ccnc3[nH]c(-c4cccc(CN(C)C)c4)cc23)c(-c2ccc(NC(=O)N(C)C)cc2)n1
In short: as §1

[5] = compound: CN1CCC(CNc2ccc3ncc(-c4cccc(OC(F)(F)F)c4)n3n2)CC1
In short: as §1

saracatinib = compound: CN1CCN(CCOc2cc(OC3CCOCC3)c3c(Nc4c(Cl)ccc5c4OCO5)ncnc3c2)CC1 [saracatinib]
In short: as §1

sotrastaurin = compound: CN1CCN(c2nc(C3=C(c4c[nH]c5ccccc45)C(=O)NC3=O)c3ccccc3n2)CC1 [sotrastaurin]
In short: as §1

alvocidib = compound: CN1CC[C@H](c2c(O)cc(O)c3c(=O)cc(-c4ccccc4Cl)oc23)[C@H](O)C1 [alvocidib]
In short: as §1

Tubastatin A = compound: CN1CCc2c(c3ccccc3n2Cc2ccc(C(=O)NO)cc2)C1 [Tubastatin A]
In short: as §1

[6] = compound: CNC(=O)C1=CC=CC=C1NC2=NC(=NC=C2Cl)NC3=C(C=C(C=C3)N4CCOCC4)OC
In short: as §1

defactinib = compound: CNC(=O)c1ccc(Nc2ncc(C(F)(F)F)c(NCc3nccnc3N(C)S(C)(=O)=O)n2)cc1 [defactinib]
In short: as §1

[7] = compound: CNc1nc(-c2ccc3c(N)n[nH]c3c2)cc(N2C[C@@H](C(=O)NC3CCCCC3)CC[C@H]2C)n1
In short: as §1

encorafenib = compound: COC(=O)N[C@@H](C)CNc1nccc(-c2cn(C(C)C)nc2-c2cc(Cl)cc(NS(C)(=O)=O)c2F)n1 [encorafenib]
In short: as §1

[8] = compound: COC(=O)[C@H](CCSC)NC(=O)C1=C(C=C(C=C1)NC[C@H](CS)N)C2=CC=CC=C2
In short: as §1

alisertib = compound: COc1cc(Nc2ncc3c(n2)-c2ccc(Cl)cc2C(c2c(F)cccc2OC)=NC3)ccc1C(=O)O [alisertib]
In short: as §1

[9] = compound: COc1cc2nc(-c3cc(F)ccc3O)nc(N[C@@H]3CNC[C@H]3C(C)(C)O)c2cc1OC
In short: as §1

gefitinib = compound: COc1cc2ncnc(Nc3ccc(F)c(Cl)c3)c2cc1OCCCN1CCOCC1 [gefitinib]
In short: as §1

Measured: log2 fold change

EHBP1L1 (UniProt Q8N3D4)
inactive: vemurafenib 0.01 | [1] 0.006 | barasertib 0.04 | [2] -0.037 | volasertib -0.019 | [3] 0.034 | [4] -0.042 | [5] 0.019 | saracatinib 0.027 | sotrastaurin -0.019 | alvocidib -0.027 | Tubastatin A -0.064 | [6] -0.005 | defactinib -0.013 | [7] 0.055 | encorafenib 0.025 | [8] -0.048 | alisertib 0.005 | [9] 0.082 | gefitinib 0.043

EHD4 (UniProt Q9H223)
inactive: vemurafenib 0.037 | [1] -0.022 | barasertib 0.033 | [2] -0.02 | volasertib -0.094 | [3] 0.036 | [4] -0.067 | [5] -0.034 | saracatinib 0.006 | sotrastaurin 0.019 | alvocidib 0.024 | Tubastatin A -0.102 | [6] -0.002 | defactinib -0.014 | [7] -0.111 | encorafenib -0.021 | [8] 0.027 | alisertib 0.041 | [9] 0.013 | gefitinib 0.019

DSCC1 (UniProt Q9BVC3)
inactive: vemurafenib 0.021 | [1] 0.067 | barasertib -0.061 | [2] -0.025 | volasertib -0.062 | [3] -0.054 | [4] -0.084 | [5] -0.018 | saracatinib -0.005 | sotrastaurin 0.036 | alvocidib -0.026 | Tubastatin A -0.002 | [6] 0.05 | defactinib -0.027 | [7] 0.03 | encorafenib 0.096 | [8] 0.048 | alisertib 0.05 | [9] 0.171 | gefitinib -0.066

DPH7 (UniProt Q9BTV6)
inactive: vemurafenib 0.003 | [1] -0.006 | barasertib -0.036 | [2] 0.078 | volasertib -0.016 | [3] 0 | [4] -0.015 | [5] 0.03 | saracatinib -0.017 | sotrastaurin 0.009 | alvocidib -0.014 | Tubastatin A -0.039 | [6] -0.021 | defactinib 0.075 | [7] 0.018 | encorafenib -0.012 | [8] -0.024 | alisertib 0.032 | [9] 0.047 | gefitinib -0.022

EFTUD2 (UniProt Q15029)
inactive: vemurafenib 0.001 | [1] 0.021 | barasertib -0.009 | [2] 0.008 | volasertib 0.013 | [3] 0.009 | [4] 0.022 | [5] -0.005 | saracatinib 0.009 | sotrastaurin -0.006 | alvocidib 0.017 | Tubastatin A -0.01 | [6] 0.01 | defactinib -0.001 | [7] 0.034 | encorafenib -0.009 | [8] -0.03 | alisertib -0.009 | [9] -0.001 | gefitinib 0.001

EEF1B2 (UniProt P24534)
inactive: vemurafenib 0.007 | [1] -0.043 | barasertib -0.028 | [2] -0.007 | volasertib 0.013 | [3] -0.018 | [4] -0.031 | [5] 0.034 | saracatinib -0.003 | sotrastaurin 0.023 | alvocidib -0.001 | Tubastatin A 0.031 | [6] -0.031 | defactinib -0.009 | [7] -0.005 | encorafenib -0.029 | [8] 0.027 | alisertib 0.008 | [9] 0.003 | gefitinib 0.003

ECHDC3 (UniProt Q96DC8)
inactive: vemurafenib 0.163 | [1] -0.004 | barasertib -0.086 | [2] -0.02 | volasertib 0.022 | [3] -0.034 | [4] -0.026 | [5] -0.006 | saracatinib -0.027 | sotrastaurin 0.006 | alvocidib -0.015 | Tubastatin A 0.026 | [6] -0.001 | defactinib 0.138 | [7] -0.003 | encorafenib -0.06 | [8] 0.01 | alisertib 0.036 | [9] -0.028 | gefitinib 0.004

DPM1 (UniProt O60762)
inactive: vemurafenib 0.055 | [1] 0.004 | barasertib -0.021 | [2] 0.039 | volasertib 0.001 | [3] -0.012 | [4] -0.013 | [5] -0.058 | saracatinib 0.036 | sotrastaurin 0.028 | alvocidib 0.084 | Tubastatin A 0.055 | [6] -0.005 | defactinib 0.037 | [7] 0.041 | encorafenib 0.01 | [8] 0.083 | alisertib 0.047 | [9] 0.013 | gefitinib -0.041

EDEM3 (UniProt Q9BZQ6)
inactive: vemurafenib 0.02 | [1] 0.04 | barasertib 0.046 | [2] -0.014 | volasertib -0.015 | [3] -0.002 | [4] -0.121 | [5] 0.078 | saracatinib -0.002 | sotrastaurin 0.025 | alvocidib -0.021 | Tubastatin A -0.017 | [6] 0.022 | defactinib -0.021 | [7] -0.019 | encorafenib 0.02 | [8] -0.013 | alisertib 0.001 | [9] 0.022 | gefitinib 0.028

DTD1 (UniProt Q8TEA8)
inactive: vemurafenib 0.015 | [1] -0.015 | barasertib -0.004 | [2] -0.046 | volasertib 0.051 | [3] -0.054 | [4] -0.01 | [5] 0.018 | saracatinib 0.048 | sotrastaurin 0.025 | alvocidib -0.023 | Tubastatin A 0.019 | [6] -0.066 | defactinib 0.005 | [7] 0.031 | encorafenib -0.011 | [8] -0.024 | alisertib 0.012 | [9] -0.008 | gefitinib 0.054

EEF1AKMT2, A0A494BZY7
inactive: vemurafenib -0.04 | [1] 0.041 | barasertib -0.023 | [2] -0.046 | volasertib -0.029 | [3] 0.019 | [4] 0.001 | [5] -0.026 | saracatinib -0.01 | sotrastaurin -0.003 | alvocidib 0.015 | Tubastatin A -0.065 | [6] -0.078 | defactinib -0.04 | [7] -0.015 | encorafenib -0.016 | [8] 0.069 | alisertib -0.02 | [9] 0.013 | gefitinib 0.011

Two records picked at random from those above:
DPM1 (UniProt O60762)
inactive: vemurafenib 0.055 | [1] 0.004 | barasertib -0.021 | [2] 0.039 | volasertib 0.001 | [3] -0.012 | [4] -0.013 | [5] -0.058 | saracatinib 0.036 | sotrastaurin 0.028 | alvocidib 0.084 | Tubastatin A 0.055 | [6] -0.005 | defactinib 0.037 | [7] 0.041 | encorafenib 0.01 | [8] 0.083 | alisertib 0.047 | [9] 0.013 | gefitinib -0.041

EEF1AKMT2, A0A494BZY7
inactive: vemurafenib -0.04 | [1] 0.041 | barasertib -0.023 | [2] -0.046 | volasertib -0.029 | [3] 0.019 | [4] 0.001 | [5] -0.026 | saracatinib -0.01 | sotrastaurin -0.003 | alvocidib 0.015 | Tubastatin A -0.065 | [6] -0.078 | defactinib -0.04 | [7] -0.015 | encorafenib -0.016 | [8] 0.069 | alisertib -0.02 | [9] 0.013 | gefitinib 0.011

Next entries follow.

EEF2K (UniProt O00418)
inactive: vemurafenib 0.037 | [1] 0.089 | barasertib 0.019 | [2] -0.107 | volasertib -0.045 | [3] 0.025 | [4] -0.028 | [5] -0.001 | saracatinib 0.028 | sotrastaurin 0.033 | alvocidib 0 | Tubastatin A -0.131 | [6] 0.035 | defactinib -0.003 | [7] -0.001 | encorafenib 0.025 | [8] 0.112 | alisertib 0.009 | [9] -0.008 | gefitinib -0.039

ECI1 (UniProt P42126)
inactive: vemurafenib -0.006 | [1] 0.012 | barasertib 0.021 | [2] -0.006 | volasertib 0.042 | [3] 0.017 | [4] -0.007 | [5] 0.058 | saracatinib 0.004 | sotrastaurin 0.001 | alvocidib 0.015 | Tubastatin A 0 | [6] -0.023 | defactinib 0.029 | [7] 0.021 | encorafenib 0 | [8] -0.041 | alisertib 0.013 | [9] 0.008 | gefitinib -0.003

EAPP (UniProt Q56P03)
inactive: vemurafenib 0.246 | [1] 0.038 | barasertib -0.048 | [2] 0.06 | volasertib 0.02 | [3] 0.009 | [4] -0.085 | [5] -0.092 | saracatinib 0.034 | sotrastaurin -0.008 | alvocidib 0.048 | Tubastatin A -0.025 | [6] 0.078 | defactinib -0.017 | [7] 0.107 | encorafenib -0.014 | [8] -0.053 | alisertib -0.042 | [9] 0.017 | gefitinib -0.03

DPYSL2 (UniProt Q16555)
inactive: vemurafenib -0.066 | [1] 0.042 | barasertib -0.025 | [2] 0.06 | volasertib 0.003 | [3] -0.011 | [4] -0.05 | [5] 0.019 | saracatinib 0.082 | sotrastaurin -0.018 | alvocidib 0.041 | Tubastatin A -0.009 | [6] -0.003 | defactinib 0.006 | [7] 0.029 | encorafenib -0.051 | [8] 0.021 | alisertib -0.073 | [9] 0.028 | gefitinib 0.039

DR1 (UniProt Q01658)
inactive: vemurafenib -0.031 | [1] -0.019 | barasertib 0.037 | [2] 0.095 | volasertib 0.039 | [3] -0.012 | [4] -0.024 | [5] 0.017 | saracatinib 0.014 | sotrastaurin 0.015 | alvocidib -0.02 | Tubastatin A 0.066 | [6] -0.034 | defactinib 0.006 | [7] 0.031 | encorafenib 0.035 | [8] -0.047 | alisertib -0.028 | [9] 0.035 | gefitinib 0.022
